# Reference: PubChem BioAssay AID652243 (Drosophila RNAi Screening Center, 2013)
# Aim: 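Fly genes required for human androgen receptor driven transcription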 (primary screen)
# Cells: Drosophila S2R+ cells
# Reagents: long dsRNA against Drosophila genes
# Duration: 72 h (48 h, then 24 h hormone)
# Conditions: synthetic androgen R1881 at 10 nM for 24 h
# Detection: 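Firefly light from an androgen-responsive reporter and Renilla control light per well, raw and unnormalised, for each of two replicates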
# Scale: firefly reporter light: higher = more light from androgen-responsive reporter; Renilla control light: higher = more constitutive control signal (cell number, transfection)
# Rule for the call: 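Hit when the log firefly-to-Renilla ratio dropped or increased by a fixed fold versus the mean of GFP or LacZ controls across duplicate plates; lowering cut given as 1.5 and as 3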
# Meaning of the calls: active = hit: reporter lowered or raised; inactive = no hit
# The screen tested about 24,000 reagents; below is an unselected part of those that have a named target and a result. Of all reagents, 246 (1%) are marked active. 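Plates not normalised; calls are printed but the firefly/Renilla ratio behind them is not deposited; fold cut for lowering reported inconsistently.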 Raw values vary from plate to plate and are shown uncorrected. Reagents against one gene are numbered here. Names joined by + are all predicted targets of the reagent. The record does not give: the amount of reagent.
target gene,dsRNA no.,"firefly reporter light, replicate 1","firefly reporter light, replicate 2","Renilla control light, replicate 1","Renilla control light, replicate 2",activity call
CG9458 (GeneID 41214),1,1.33e5,1.17e5,1.83e6,2.02e6,inactive
RpL12 (GeneID 45329),1,3.52e5,3.10e5,1.31e6,1.31e6,inactive
CR4575 (GeneID 12797942),1,3.26e5,4.41e5,2.94e6,2.35e6,inactive
CG11590 (GeneID 32368),1,4.37e5,3.69e5,3.16e6,3.90e6,inactive
CG11590 (GeneID 32368),2,2.81e5,5.75e5,1.20e6,2.21e6,active
CG44002 + CR44003,1,3.67e5,3.69e5,8.08e5,6.64e5,inactive
Mical (GeneID 41225),1,88878,86940,1.57e6,1.49e6,inactive
Mical (GeneID 41225),2,1.19e5,1.57e5,1.97e6,2.52e6,inactive
Mical (GeneID 41225),3,91539,1.23e5,1.59e6,1.56e6,inactive
Mical (GeneID 41225),4,1.18e5,1.75e5,2.83e6,2.90e6,inactive
CG6431 (GeneID 34476),1,1.81e5,1.98e5,1.54e6,1.57e6,inactive
cato (GeneID 36813),1,78733,1.28e5,8.64e5,8.64e5,inactive
HisRS (GeneID 32841),1,4.04e5,3.75e5,3.33e6,2.82e6,inactive
AsnS (GeneID 2768965),1,1.53e5,1.32e5,2.34e5,2.17e5,inactive
hgo (GeneID 34552),1,2.39e5,1.72e5,1.99e6,1.83e6,inactive
CG8916 (GeneID 32553),1,5.96e5,5.95e5,2.73e6,2.27e6,inactive
CG13300 (GeneID 38730),1,19998,43278,5.06e5,5.27e5,inactive
CG13300 (GeneID 38730),2,1.23e6,1.02e6,1.12e6,1.10e6,inactive
CG6951 (GeneID 40222),1,1.66e5,1.55e5,2.15e6,2.11e6,inactive
CG4709 (GeneID 34324),1,1.23e6,1.19e6,1.81e6,2.29e6,inactive
CG33228 (GeneID 2768732),1,1.15e6,9.65e5,2.32e6,1.70e6,inactive
TfIIA-S-2 (GeneID 31048),1,2.33e5,2.73e5,4.71e6,3.39e6,inactive
Obp83b (GeneID 40738),1,57082,39692,1.31e6,8.65e5,inactive
Obp83b (GeneID 40738),2,4.05e5,3.73e5,4.10e5,4.45e5,inactive
toe (GeneID 39418),1,1.22e5,1.34e5,1.35e5,1.37e5,inactive
croc (GeneID 40374),1,2.75e5,3.15e5,2.00e6,2.63e6,inactive
croc (GeneID 40374),2,4.28e5,5.60e5,1.23e6,1.23e6,inactive
DAT (GeneID 36849),1,1.23e5,91607,1.67e6,1.67e6,inactive
CG9168 (GeneID 38163),1,64459,60238,8.02e5,8.68e5,inactive
Ugt37E1 (GeneID 53512),1,2.20e5,2.29e5,2.43e6,2.58e6,inactive
Ugt37E1 (GeneID 53512),2,3.59e5,3.35e5,1.38e6,5.73e5,inactive
vis + achi,1,9.70e5,8.29e5,1.53e6,1.55e6,inactive
Bhmt (GeneID 35153),1,1.24e5,1.82e5,1.60e6,1.72e6,inactive
Bhmt (GeneID 35153),2,8.23e5,7.91e5,1.15e6,1.06e6,inactive
CG6142 (GeneID 43178),1,1.54e5,1.65e5,2.10e6,1.90e6,inactive
CG13901 (GeneID 38095),1,77627,73468,1.40e6,1.48e6,inactive
cup (GeneID 33934),1,7.65e5,1.13e6,1.01e6,1.08e6,inactive
cup (GeneID 33934),2,5.30e5,2.84e5,3.92e5,3.67e5,inactive
Rpn2 (GeneID 43449),1,62975,79130,6.78e5,5.61e5,inactive
Cmpk (GeneID 43165),1,1.02e5,1.04e5,8.73e5,8.55e5,inactive
Cmpk (GeneID 43165),2,,,,,inactive
NKCC (GeneID 40663),1,17564,53817,3.12e5,2.98e5,inactive
NKCC (GeneID 40663),2,59459,71642,1.34e6,9.98e5,inactive
CR18228 (GeneID 8674096),1,1.06e5,1.21e5,2.31e6,2.36e6,inactive
Ubc7 (GeneID 44054),1,5.19e5,6.65e5,3.44e6,3.34e6,inactive
CG14456 (GeneID 40481),1,1.06e5,1.15e5,1.34e6,1.59e6,inactive
CG14456 (GeneID 40481),2,3.92e5,4.29e5,2.78e5,5.92e5,inactive
KLHL18 (GeneID 41458),1,59582,49714,4.17e5,4.98e5,inactive
KLHL18 (GeneID 41458),2,2.51e5,2.71e5,5.56e5,4.91e5,inactive
ASPP (GeneID 37422),1,9.36e5,1.06e6,1.46e6,2.07e6,inactive
CG10428 (GeneID 35150),1,1.08e6,6.42e5,1.77e6,9.09e5,inactive
Vps26 (GeneID 31144),1,12554,13489,2.87e5,2.03e5,active
Vps26 (GeneID 31144),2,9.07e5,1.09e6,4.85e5,7.18e5,inactive
FANCI (GeneID 35895),1,2.13e5,2.18e5,1.24e6,1.06e6,inactive
RpS24 (GeneID 37589),1,2.36e5,4.62e5,9.06e5,1.30e6,inactive
RpS24 (GeneID 37589),2,1.95e5,1.92e5,7.30e5,6.52e5,active
yellow-f2 (GeneID 41596),1,80295,81284,5.80e5,7.40e5,inactive
yellow-f2 (GeneID 41596),2,2.33e5,2.26e5,3.24e5,2.10e5,inactive

Active calls, of those listed so far:
target gene,dsRNA no.,"firefly reporter light, replicate 1","firefly reporter light, replicate 2","Renilla control light, replicate 1","Renilla control light, replicate 2",activity call
CG11590 (GeneID 32368),2,2.81e5,5.75e5,1.20e6,2.21e6,active
Vps26 (GeneID 31144),1,12554,13489,2.87e5,2.03e5,active
RpS24 (GeneID 37589),2,1.95e5,1.92e5,7.30e5,6.52e5,active
